Results on two substances are retold here after article PMC2896393.

Amino acid sequences for entries named in this document (tags omitted).
UniProt P29590: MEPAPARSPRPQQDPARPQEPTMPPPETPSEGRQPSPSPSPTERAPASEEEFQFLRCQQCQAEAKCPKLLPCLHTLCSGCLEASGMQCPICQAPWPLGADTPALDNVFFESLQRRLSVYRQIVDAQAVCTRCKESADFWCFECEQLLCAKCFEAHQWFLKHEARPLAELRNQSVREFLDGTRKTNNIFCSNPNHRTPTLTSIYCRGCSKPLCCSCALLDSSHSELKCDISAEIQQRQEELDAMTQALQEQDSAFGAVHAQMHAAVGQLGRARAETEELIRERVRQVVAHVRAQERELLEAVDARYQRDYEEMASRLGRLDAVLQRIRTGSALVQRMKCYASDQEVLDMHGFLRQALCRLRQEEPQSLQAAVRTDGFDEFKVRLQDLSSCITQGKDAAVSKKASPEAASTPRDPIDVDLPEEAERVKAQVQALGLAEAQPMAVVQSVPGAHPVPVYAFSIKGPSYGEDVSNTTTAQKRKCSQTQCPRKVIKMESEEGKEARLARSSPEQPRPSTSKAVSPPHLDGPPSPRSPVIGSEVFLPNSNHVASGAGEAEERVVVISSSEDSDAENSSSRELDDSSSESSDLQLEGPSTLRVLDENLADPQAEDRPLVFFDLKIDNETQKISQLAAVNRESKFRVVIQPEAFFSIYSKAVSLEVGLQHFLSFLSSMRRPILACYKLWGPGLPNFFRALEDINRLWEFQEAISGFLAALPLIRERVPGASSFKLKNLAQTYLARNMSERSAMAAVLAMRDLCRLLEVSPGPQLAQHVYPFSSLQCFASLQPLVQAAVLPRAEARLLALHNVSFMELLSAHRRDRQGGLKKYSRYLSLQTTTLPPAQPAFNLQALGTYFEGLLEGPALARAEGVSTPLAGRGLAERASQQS
UniProt P68400: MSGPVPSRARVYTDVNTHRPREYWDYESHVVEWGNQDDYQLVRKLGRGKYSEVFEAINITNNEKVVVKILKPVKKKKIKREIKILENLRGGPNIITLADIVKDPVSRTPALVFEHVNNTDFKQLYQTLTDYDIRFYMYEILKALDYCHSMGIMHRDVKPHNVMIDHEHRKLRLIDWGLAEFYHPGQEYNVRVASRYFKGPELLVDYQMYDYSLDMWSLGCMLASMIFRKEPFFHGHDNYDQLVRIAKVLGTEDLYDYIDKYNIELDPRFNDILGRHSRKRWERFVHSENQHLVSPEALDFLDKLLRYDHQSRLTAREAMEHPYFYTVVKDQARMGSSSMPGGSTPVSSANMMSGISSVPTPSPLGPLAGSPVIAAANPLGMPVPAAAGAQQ
UniProt Q8NEV1: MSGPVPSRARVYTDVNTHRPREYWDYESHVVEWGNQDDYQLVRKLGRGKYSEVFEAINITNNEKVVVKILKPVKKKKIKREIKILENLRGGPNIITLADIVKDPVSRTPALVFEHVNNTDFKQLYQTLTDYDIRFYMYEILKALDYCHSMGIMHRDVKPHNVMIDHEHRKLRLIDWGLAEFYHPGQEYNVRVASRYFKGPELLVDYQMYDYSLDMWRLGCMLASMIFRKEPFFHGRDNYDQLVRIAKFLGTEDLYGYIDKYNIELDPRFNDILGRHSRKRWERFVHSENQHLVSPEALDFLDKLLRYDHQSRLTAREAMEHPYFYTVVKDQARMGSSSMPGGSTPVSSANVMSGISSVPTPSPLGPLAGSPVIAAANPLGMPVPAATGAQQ

The target in the experiment is PML-V5 (PML tumor suppressor protein, from PML pcDNA4/V5-His) (UniProt P29590). The experiment can be described thus: co-IP; 293T cells co-transfected with PML-V5 and Myc-tagged CSNK2A1 or CSNK2A1P; 10 µM MG132 24 h after transfection; NP-40 lysis buffer (150 mM NaCl, 50 mM Tris pH 8.0, 1% NP40); reciprocal immunoprecipitation with anti-Myc tag and anti-V5 tag antibodies (Catch and Release v2.0).

Results are given in words; binding and its absence hold for the method and conditions named. In cells and extracts the contact can be indirect. Some binding calls cover weakened binding; strength is not graded here.

As to “Myc-tagged CSNK2A1 (CK2α, from CSNK2A1 pcDNA3.1/myc-His) (from UniProt P68400 1-391) (enzyme)”, the binding result is on record as “binds”. Then “Myc-tagged CSNK2A1P (I133), product of the 398T allele of the CK2α intronless gene (from UniProt Q8NEV1 1-391) (enzyme)”, with “binds”.
